Reference: patent US20090163452A1, “COMPOSITIONS AND METHODS FOR LOWERING SERUM CHOLESTEROL” (priority 2007, published 2009)

Test: Blood pressure and heart rate (automated aneroid devices) in the crossover study
Format: in vivo, human
[1] = during vitamin D supplementation, patients on atorvastatin

Molecule | heart rate (Off-D, atorvastatin without supplemental vitamin D) | diastolic blood pressure [1] | heart rate [1] | mean arterial pressure [1] | systolic blood pressure [1]
CC(C)c1c(C(=O)Nc2ccccc2)c(-c2ccccc2)c(-c2ccc(F)cc2)n1CC[C@@H](O)C[C@@H](O)CC(=O)O [atorvastatin] | 81±14 bpm |  |  |  | 
vitamin D |  | 69±8 mmHg | 65±15 bpm | 88±8 mmHg | 125±12 mmHg

The amount applied is not stated for every result.
